Source: the supplement of paper PMC8728848
The other results are listed elsewhere or left out.

Key:
Assay in all cases: glycan array binding signal (z-score within array); higher = stronger binding
Conditions in all cases: glycan notation: IUPAC condensed, linker removed
[1] = biological target: GlcNAc(b1-3)Gal(b1-4)Glc
Outline: (§1)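 The Consortium for Functional Glycomics database supplied 3228 glycan arrays, of which those lacking an available protein sequence were dropped. The binding signal, a within-array Z-score, was averaged across arrays of the same protein sequence and across linkers. Negative scores can be read as non-binding.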

[2] = biological target: GlcNAc(b1-3)Gal(b1-4)GlcNAc
Outline: as §1

[3] = biological target: GlcNAc(b1-3)Gal(b1-4)GlcNAc(b1-2)Man(a1-3)[GlcNAc(b1-3)Gal(b1-4)GlcNAc(b1-2)Man(a1-6)]Man(b1-4)GlcNAc(b1-4)GlcNAc
Outline: as §1

[4] = biological target: GlcNAc(b1-3)Gal(b1-4)GlcNAc(b1-2)Man(a1-3)[GlcNAc(b1-3)Gal(b1-4)GlcNAc(b1-2)Man(a1-6)]Man(b1-4)GlcNAc(b1-4)[Fuc(a1-6)]GlcNAc
Outline: as §1

[5] = biological target: GlcNAc(b1-3)Gal(b1-4)GlcNAc(b1-2)[GlcNAc(b1-3)Gal(b1-4)GlcNAc(b1-6)]Man(a1-6)[GlcNAc(b1-3)Gal(b1-4)GlcNAc(b1-2)Man(a1-3)]Man(b1-4)GlcNAc(b1-4)GlcNAc
Outline: as §1

[6] = biological target: GlcNAc(b1-3)Gal(b1-4)GlcNAc(b1-3)Gal(b1-4)GlcNAc
Outline: as §1

[7] = biological target: GlcNAc(b1-3)Gal(b1-4)GlcNAc(b1-3)Gal(b1-4)GlcNAc(b1-2)Man(a1-3)[GlcNAc(b1-3)Gal(b1-4)GlcNAc(b1-3)Gal(b1-4)GlcNAc(b1-2)Man(a1-6)]Man(b1-4)GlcNAc(b1-4)GlcNAc
Outline: as §1

[8] = biological target: GlcNAc(b1-3)Gal(b1-4)GlcNAc(b1-3)Gal(b1-4)GlcNAc(b1-2)Man(a1-3)[GlcNAc(b1-3)Gal(b1-4)GlcNAc(b1-3)Gal(b1-4)GlcNAc(b1-2)Man(a1-6)]Man(b1-4)GlcNAc(b1-4)[Fuc(a1-6)]GlcNAc
Outline: as §1

[9] = biological target: GlcNAc(b1-3)Gal(b1-4)GlcNAc(b1-3)Gal(b1-4)GlcNAc(b1-2)[GlcNAc(b1-3)Gal(b1-4)GlcNAc(b1-3)Gal(b1-4)GlcNAc(b1-6)]Man(a1-6)[GlcNAc(b1-3)Gal(b1-4)GlcNAc(b1-3)Gal(b1-4)GlcNAc(b1-2)Man(a1-3)]Man(b1-4)GlcNAc(b1-4)[Fuc(a1-6)]GlcNAc
Outline: as §1

[10] = biological target: GlcNAc(b1-3)Gal(b1-4)GlcNAc(b1-3)Gal(b1-4)GlcNAc(b1-3)Gal(b1-4)GlcNAc(b1-2)Man(a1-3)[GlcNAc(b1-3)Gal(b1-4)GlcNAc(b1-3)Gal(b1-4)GlcNAc(b1-3)Gal(b1-4)GlcNAc(b1-2)Man(a1-6)]Man(b1-4)GlcNAc(b1-4)GlcNAc
Outline: as §1

[11] = biological target: GlcNAc(b1-3)Gal(b1-4)GlcNAc(b1-3)Gal(b1-4)GlcNAc(b1-3)Gal(b1-4)GlcNAc(b1-2)Man(a1-3)[GlcNAc(b1-3)Gal(b1-4)GlcNAc(b1-3)Gal(b1-4)GlcNAc(b1-3)Gal(b1-4)GlcNAc(b1-2)Man(a1-6)]Man(b1-4)GlcNAc(b1-4)[Fuc(a1-6)]GlcNAc
Outline: as §1

[12] = biological target: GlcNAc(b1-3)Gal(b1-4)GlcNAc(b1-3)Gal(b1-4)GlcNAc(b1-3)Gal(b1-4)GlcNAc(b1-2)[GlcNAc(b1-3)Gal(b1-4)GlcNAc(b1-3)Gal(b1-4)GlcNAc(b1-3)Gal(b1-4)GlcNAc(b1-6)]Man(a1-6)[GlcNAc(b1-3)Gal(b1-4)GlcNAc(b1-3)Gal(b1-4)GlcNAc(b1-3)Gal(b1-4)GlcNAc(b1-2)Man(a1-3)]Man(b1-4)GlcNAc(b1-4)[Fuc(a1-6)]GlcNAc
Outline: as §1

[13] = biological target: GlcNAc(b1-3)Gal(b1-4)GlcNAc(b1-3)Gal(b1-4)GlcNAc(b1-3)Gal(b1-4)GlcNAc(b1-3)Gal(b1-4)GlcNAc(b1-2)Man(a1-3)[GlcNAc(b1-3)Gal(b1-4)GlcNAc(b1-3)Gal(b1-4)GlcNAc(b1-3)Gal(b1-4)GlcNAc(b1-3)Gal(b1-4)GlcNAc(b1-2)Man(a1-6)]Man(b1-4)GlcNAc(b1-4)GlcNAc
Outline: as §1

[14] = biological target: GlcNAc(b1-3)Gal(b1-4)GlcNAc(b1-3)Gal(b1-4)GlcNAc(b1-3)Gal(b1-4)GlcNAc(b1-3)Gal(b1-4)GlcNAc(b1-2)Man(a1-3)[GlcNAc(b1-3)Gal(b1-4)GlcNAc(b1-3)Gal(b1-4)GlcNAc(b1-3)Gal(b1-4)GlcNAc(b1-3)Gal(b1-4)GlcNAc(b1-2)Man(a1-6)]Man(b1-4)GlcNAc(b1-4)[Fuc(a1-6)]GlcNAc
Outline: as §1

[15] = biological target: GlcNAc(b1-3)Gal(b1-4)GlcNAc(b1-3)Gal(b1-4)GlcNAc(b1-3)Gal(b1-4)GlcNAc(b1-3)Gal(b1-4)GlcNAc(b1-2)[GlcNAc(b1-3)Gal(b1-4)GlcNAc(b1-3)Gal(b1-4)GlcNAc(b1-3)Gal(b1-4)GlcNAc(b1-3)Gal(b1-4)GlcNAc(b1-6)]Man(a1-6)[GlcNAc(b1-3)Gal(b1-4)GlcNAc(b1-3)Gal(b1-4)GlcNAc(b1-3)Gal(b1-4)GlcNAc(b1-3)Gal(b1-4)GlcNAc(b1-2)Man(a1-3)]Man(b1-4)GlcNAc(b1-4)[Fuc(a1-6)]GlcNAc
Outline: as §1

[16] = biological target: GlcNAc(b1-3)Gal(b1-4)GlcNAc(b1-3)Gal(b1-4)GlcNAc(b1-3)GalNAc
Outline: as §1

[17] = biological target: GlcNAc(b1-3)Gal(b1-4)GlcNAc(b1-3)GalNAc
Outline: as §1

[18] = biological target: GlcNAc(b1-3)Gal(b1-4)GlcNAc(b1-3)[GlcNAc(b1-3)Gal(b1-4)GlcNAc(b1-3)]GalNAc
Outline: as §1

[19] = biological target: GlcNAc(b1-3)Gal(b1-4)GlcNAc(b1-6)[Gal(b1-3)]GalNAc
Outline: as §1

[20] = biological target: GlcNAc(b1-3)Gal(b1-4)GlcNAc(b1-6)[GlcNAc(b1-3)Gal(b1-3)]GalNAc
Outline: as §1

[21] = biological target: GlcNAc(b1-3)Gal(b1-4)GlcNAc(b1-6)[GlcNAc(b1-3)]Gal(b1-4)GlcNAc
Outline: as §1

[22] = biological target: GlcNAc(b1-3)GalNAc
Outline: as §1

[23] = biological target: GlcNAc(b1-3)Man
Outline: as §1

[24] = biological target: GlcNAc(b1-3)[GlcNAc(b1-4)][GlcNAc(b1-6)]GlcNAc
Outline: as §1

[25] = biological target: GlcNAc(b1-3)[GlcNAc(b1-6)]Gal(b1-4)GlcNAc
Outline: as §1

[26] = biological target: GlcNAc(b1-3)[GlcNAc(b1-6)]GalNAc
Outline: as §1

[27] = biological target: GlcNAc(b1-4)Gal(b1-4)GlcNAc
Outline: as §1

[28] = biological target: GlcNAc(b1-4)GlcNAc
Outline: as §1

[29] = biological target: GlcNAc(b1-4)GlcNAc(b1-4)GlcNAc
Outline: as §1

[30] = biological target: GlcNAc(b1-4)GlcNAc(b1-4)GlcNAc(b1-4)GlcNAc(b1-4)GlcNAc
Outline: as §1

[31] = biological target: GlcNAc(b1-4)GlcNAc(b1-4)GlcNAc(b1-4)GlcNAc(b1-4)GlcNAc(b1-4)GlcNAc
Outline: as §1

[32] = biological target: GlcNAc(b1-4)[GlcNAc(b1-6)]GalNAc
Outline: as §1

[33] = biological target: GlcNAc(b1-6)Gal(b1-4)GlcNAc
Outline: as §1

[34] = biological target: GlcNAc(b1-6)GalNAc
Outline: as §1

[35] = biological target: GlcNAc6S(b1-3)Gal(b1-4)GlcNAc
Outline: as §1

[36] = biological target: Kdn(a2-3)Gal(b1-3)GalNAc
Outline: as §1

[37] = biological target: Kdn(a2-3)Gal(b1-3)GlcNAc
Outline: as §1

B1: PX14343G-pdi-535-24-535 (Parabacteroides distasonis) (protein)
chain: LDTVPKDQLAPSTTWQTEADAKGFIVGCYKDLLDGNTLLYLDCGSDIGYNNFPWEGFRPWGDGSLSSSNPGQILYDYKSIRKANTFLENVDKVTFSSDAVKANYVAQAKAIRAYKYFLMNWWYGGVPIISSYSSADEAKVERNTEQEVRDYIAKDLDEALAGIAEAPEARGYIAKGAVLAIKMREALYYGDWQKAKDAAKAIIDLKQYELDPDYTNLFKVSGVDSKEIILADQNIETLDGLGTIGQMYNNVDQGWSSIVPTQNLVDMYEMSDGLTKEESKTYDAKHPFANRDPRMAMTILYPGRDWRGDVLNTLDEKLQDGTVNKNFPTYTDNASKSALTWAKYLDPMDQYGDVWSSGACPIVFRYAEVLLTYAEAANELSGPSDEIYGYLNQIRQRVGMGEVDKAKYGTKDKLRELIRRERTVELAGEGLRRADIVRWQEDGKMLAEKVMNGDLLRVTGTINYGESEPTKRAEITGTAVIETRQFSSRNRYLPIPQTSMDKNPNLKQNPGY
[1]
  glycan array binding signal (z-score): -0.128
[2]
  glycan array binding signal (z-score): -0.842
[3]
  glycan array binding signal (z-score): 1.18
[4]
  glycan array binding signal (z-score): -0.327
[5]
  glycan array binding signal (z-score): 2.37
[6]
  glycan array binding signal (z-score): -0.554
[7]
  glycan array binding signal (z-score): 1.13
[8]
  glycan array binding signal (z-score): 0.286
[9]
  glycan array binding signal (z-score): -0.028
[10]
  glycan array binding signal (z-score): -0.133
[11]
  glycan array binding signal (z-score): 0.497
[12]
  glycan array binding signal (z-score): 0.865
[13]
  glycan array binding signal (z-score): 0.208
[14]
  glycan array binding signal (z-score): 0.685
[15]
  glycan array binding signal (z-score): 0.346
[16]
  glycan array binding signal (z-score): -0.867
[17]
  glycan array binding signal (z-score): -0.147
[18]
  glycan array binding signal (z-score): 0.31
[19]
  glycan array binding signal (z-score): -1.23
[20]
  glycan array binding signal (z-score): 0.869
[21]
  glycan array binding signal (z-score): 0.049
[22]
  glycan array binding signal (z-score): -0.28
[23]
  glycan array binding signal (z-score): -0.358
[24]
  glycan array binding signal (z-score): 0.73
[25]
  glycan array binding signal (z-score): 1
[26]
  glycan array binding signal (z-score): -0.383
[27]
  glycan array binding signal (z-score): -0.991
[28]
  glycan array binding signal (z-score): -0.119
[29]
  glycan array binding signal (z-score): 0.168
[30]
  glycan array binding signal (z-score): 0.26
[31]
  glycan array binding signal (z-score): 0.028
[32]
  glycan array binding signal (z-score): 0.546
[33]
  glycan array binding signal (z-score): -0.303
[34]
  glycan array binding signal (z-score): 0.185
[35]
  glycan array binding signal (z-score): -0.541
[36]
  glycan array binding signal (z-score): -0.224
[37]
  glycan array binding signal (z-score): 0.143
